Reference: ChEMBL document CHEMBL1138013, “Parallel methods for the preparation and SAR exploration of N-ethyl-4-[(8-alkyl-8-aza-bicyclo[3.2.1]oct-3-ylidene)-aryl-methyl]-benzamides, powerful mu and delta opioid agonists” (Bioorg Med Chem Lett, 2004)
pKi: −log10 of the molar value.

Assay: Binding affinity against delta opioid receptor […]
Set-up: species or system Mus musculus

**Q.** With `CN1CC[C@]23c4c5ccc(O)c4O[C@H]2[C@@H](O)C=C[C@H]3[C@H]1C5` [MORPHINE] as the compound, how does the pKi read?
**A.** 7.05
